Construct, isoform or probe ends are uncertain for at least one entry. For some of these results: Negatives hold for the conditions tested. For some of these results: At least one verdict was read from the data and is not stated in words by the source. The comparison behind a weaker result is the experiment's own reference, which may not be listed here.
What was measured:
[1] = target: T1, GlcR (Paracoccus denitrificans DSM 413) (UniProt A1BAC0); experiment: EMSA; conditions: glycolate 0.5-2 mM, 1,000x GlcR; EMSA: 20 mM K phosphate pH 7.0, 1 mM DTT, 5 mM MgCl2, 50 mM KCl, 15 ug/mL BSA, 50 ug/mL herring sperm DNA, 5% glycerol, 0.1% Tween20, DNA 0.025 pM, 37 C 20 min; recombinant protein; residues 1-269; protein details: N-terminal His (pET16b); label: 5' Dyomics 781 on reverse primer; probe letters rebuilt from the primers and the genome
T1 sequence: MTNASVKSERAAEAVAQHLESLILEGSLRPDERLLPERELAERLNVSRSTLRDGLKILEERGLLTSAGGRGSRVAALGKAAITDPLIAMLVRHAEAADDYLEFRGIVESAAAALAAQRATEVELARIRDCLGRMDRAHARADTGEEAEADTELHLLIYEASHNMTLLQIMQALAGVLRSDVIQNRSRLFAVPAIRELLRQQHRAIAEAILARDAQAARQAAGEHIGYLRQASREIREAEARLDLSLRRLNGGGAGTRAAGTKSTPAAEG

Sequences of proteins named here, by UniProt entry; tags and fusion partners are left off. A change or cut given only in a name is not applied to a line headed by its entry.
UniProt A1B8Z4: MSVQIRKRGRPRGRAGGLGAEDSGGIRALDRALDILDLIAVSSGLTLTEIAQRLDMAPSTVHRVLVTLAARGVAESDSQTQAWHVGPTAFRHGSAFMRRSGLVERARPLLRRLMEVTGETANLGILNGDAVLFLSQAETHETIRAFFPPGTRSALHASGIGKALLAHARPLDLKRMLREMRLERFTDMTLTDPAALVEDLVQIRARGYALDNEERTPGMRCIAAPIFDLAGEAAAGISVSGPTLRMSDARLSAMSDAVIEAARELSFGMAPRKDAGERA

[2] = target: T2, MGlcR (MBP-GlcR) (Paracoccus denitrificans DSM 413) (UniProt A1BAC0); experiment: fluorescence polarization; conditions: FP: 50 mM HEPES pH 7.5, 100 mM NaCl, 0.01% Triton X-100, 10 nM DNA, room temperature 10 min, protein details: N-terminal His-MBP
T2 sequence: T1 sequence

[3] = target: BhcR (Paracoccus denitrificans DSM 413) (UniProt A1B8Z4); experiment: EMSA; conditions: glyoxylate 0.1-5 mM, 40,000x BhcR, decreased, not abolished; EMSA: 20 mM K phosphate pH 7.0, 1 mM DTT, 5 mM MgCl2, 50 mM KCl, 15 ug/mL BSA, 50 ug/mL herring sperm DNA, 5% glycerol, 0.1% Tween20, DNA 0.025 pM, 37 C 20 min; recombinant protein; protein details: N-terminal His (pET16b); label: 5' Dyomics 781 on reverse primer; probe letters rebuilt from the primers and the genome

“CAAGCTCTCCTCCCTTGGTCGAACGGCAGGCCCGTGTCCTGCCCTGCATTCTTGGTATAATTTTCAGACCACATTAGTCAATCGGTATTTTTCTGGACCGACACGCCCGTCCTGTGCTTACATGGCAGGGATCCGACAACCGCATGAGCGCCCATG (double strand) [Pglc 156 bp]”: binds more weakly [1].

“GCTCTCCTCCCTTGGTCGAACGGCAGGCCCGTGTCCTGCCCTGCATTCTTGGTATAATTTTCAGACCACATTAGTCAATCGGTATTTTTCTGGACCGACACGCCCGTCCTGTGCTTACATGGCAGGGATCCGACAACCGCATGAGCGCCC (double strand) [[6FAM]-Pglc]”: binds more weakly ([2]; glycolate 0.1-100 mM, 750 nM MGlcR, recombinant protein, label: 5' 6FAM on S34 strand, probe letters rebuilt from the primers and the genome).

“GGAATGAAGATCGGGTTCTGGCTGGTCATGGCAATTCCTCCTGCGCTTGTGGACCAAGCTACGTTTTGCTGTCCATTGATGCAATTTTTCTGAAAAATATTTCGCAATCGCGGAAAAATGACCTAAAGTGTCGTGGAATCAGATCGTTGCTCTTTTCCAAAGCCAAAGAGTGATTTTCAACAAACTCAGAAAGTTGTCGAAAGGAAAAATTGAATGTCGGTTCAAATCCGCAAAAGGG (double strand) [Pbhc 238 bp]”: binds more weakly [3].

“TCCCTATCAGTGATAGAGA (double strand) [[6FAM]-tetO]”: no binding ([2]; 10 nM DNA, MGlcR up to 6 uM in dilution series, recombinant …, label: 5' 6FAM on S36).
